# At least one compound was matched to its structure with a doubt left.
# Key:
# [1] = Stability Study 2: BPO/sunscreen mixture, one month at room temperature; format: physicochemical
# Description: (§1) The stability provided by using the above formula and mixing process has heretofore been unmatched.
# [2] = Stability Study 3: BPO/sunscreen mixture, one month at room temperature; format: physicochemical
# Description: as §1
# [3] = Study 2, 1 month room temperature
# [4] = Study 3, 1 month room temperature
smiles,measurement,setting,value
"CCCCC(CC)COC(=O)C=Cc1ccc(OC)cc1 (centres unmarked) [OMC, Octyl methoxycinnamate]",1 MONTH-RT (content),[1]; [3],7.71%
same,"1 MONTH-RT (percent of initial, in brackets)",[1]; [3],100%
same,"% INITIAL (percent of initial, in brackets)","[1]; Study 2, initial",100%
same,% INITIAL (content),"[1]; Study 2, initial, in BPO/sunscreen mixture",7.66%
same,1 MONTH-RT (content),[2]; [4],6.74%
same,"1 MONTH-RT (percent of initial, in brackets)",[2]; [4],96%
same,"% INITIAL (percent of initial, in brackets)","[2]; Study 3, initial",100%
same,% INITIAL (content),"[2]; Study 3, initial, in BPO/sunscreen mixture",7.01%
